Reference: patent US20100234378A1, “ALKYLSULFONAMIDE-SUBSTITUTED TRIAZOLES AS MATRIX METALLOPROTEASE INHIBITORS” (ARRAY BIOPHARMA INC., priority 2006, published 2010)
Counter-ions that a name gives are not always drawn. Some entries share one result that the patent states for a list of compounds.

What follows are compounds tested against T1, MMP-13 (baculovirus expressed full-length protein) (Homo sapiens, UniProt P45452) (assay: MMP-13 assay (FRET, quenched-fluorogenic substrate)). Details: MMP-13 enzymatic assay, Mca-PLGL-Dap(Dnp)-AR-NH2 substrate, 10 min pre-incubation.
T1 construct: made in house; host or cells: baculovirus expression system (insect cells)
Format: biochemical

Structure (SMILES) | IC50 [µM]
CC(C)(NS(=O)(=O)c1ccc(-c2cccc(CNC(=O)c3ccccc3)c2)cc1)c1cnn[nH]1 [Example 23, N-((4′-(N-(2-(1H-1,2,3-triazol-5-yl)propan-2-yl)sulfamoyl)biphenyl-3-yl)methyl)benzamide] | < 10
CC(C)(NS(=O)(=O)c1ccc(-c2cccc(CN)c2)cc1)c1cnn[nH]1 [Example 21, N-(2-(1H-1,2,3-triazol-5-yl)propan-2-yl)-4′-(trifluoromethyl)biphenyl-4-sulfonamide hydrochloride] | < 10
CC(C)(NS(=O)(=O)c1ccc(-c2cccc(CNC(=O)OC3CCCC3)c2)cc1)c1cnn[nH]1 [Example 34, Cyclopentyl(4′-(N-(2-(1H-1,2,3-triazol-5-yl)propan-2-yl)sulfamoyl)biphenyl-3-yl)methylcarbamate] | < 10
CC(C)(NS(=O)(=O)c1ccc(-c2cccc(CNC(=O)c3ccncc3)c2)cc1)c1cnn[nH]1 [Example 25, N-((4′-(N-(2-(1H-1,2,3-triazol-5-yl)propan-2-yl)sulfamoyl)biphenyl-3-yl)methyl)isonicotinamide] | < 10
CC(C)(c1cnn[nH]1)N(CCN1CCOCC1)S(=O)(=O)c1ccc(-c2ccc(C(F)(F)F)cc2)cc1 [Example 17, N-(2-(1H-1,2,3-triazol-5-yl)propan-2-yl)-N-(2-morpholinoethyl)-4′-(trifluoromethyl)biphenyl-4-sulfonamide] | < 10
O=S(=O)(NCc1cnn[nH]1)c1ccc(-c2ccc(Cl)cc2)cc1 [Example 4, N-((1H-1,2,3-triazol-5-yl)methyl)-4′-(chloro)biphenyl-4-sulfonamide] | < 10
Cc1ccc(-c2ccc(S(=O)(=O)NCc3cnn[nH]3)cc2)cc1 [Example 6, N-((1H-1,2,3-triazol-5-yl)methyl)-4′-(methyl)biphenyl-4-sulfonamide] | < 10
COc1ccc(-c2ccc(S(=O)(=O)NCc3cnn[nH]3)cc2)cc1 [Example 3, N-((1H-1,2,3-triazol-5-yl)methyl)-4′-(methoxy)biphenyl-4-sulfonamide] | < 10
CC(C)(NS(=O)(=O)c1ccc(-c2ccc(C(F)(F)F)cc2)cc1)c1[nH]nnc1Br [Example 15, N-(2-(4-bromo-1H-1,2,3-triazol-5-yl)propan-2-yl)-4′-(trifluoromethyl)biphenyl-4-sulfonamide] | < 10
CC(C)(NS(=O)(=O)c1ccc(-c2cccc(CNC(=O)OCc3ccccc3)c2)cc1)c1cnn[nH]1 [Example 30, Benzyl(4′-(N-(2-(1H-1,2,3-triazol-5-yl)propan-2-yl)sulfamoyl)biphenyl-3-yl)methylcarbamate] | < 10
CC(C)(NS(=O)(=O)c1ccc(-c2cccc(CNC(=O)c3ccc(Cl)cc3)c2)cc1)c1cnn[nH]1 [Example 24, N-((4′-(N-(2-(1H-1,2,3-triazol-5-yl)propan-2-yl)sulfamoyl)biphenyl-3-yl)methyl)-4-chlorobenzamide] | < 10
CC(C)(NS(=O)(=O)c1ccc(-c2ccc(C(F)(F)F)cc2)cc1)c1cnn[nH]1 [Example 13, N-(2-(1H-1,2,3-triazol-5-yl)propan-2-yl)-4′-(trifluoromethyl)biphenyl-4-sulfonamide] | < 10
O=S(=O)(NCc1cnn[nH]1)c1ccc(-c2ccccc2)cc1 [Example 1, N-((1H-1,2,3-triazol-5-yl)methyl)biphenyl-4-sulfonamide] | < 10
O=S(=O)(NCc1cnn[nH]1)c1ccc(-c2ccc(F)cc2)cc1 [Example 5, N-((1H-1,2,3-triazol-5-yl)methyl)-4′-(fluoro)biphenyl-4-sulfonamide] | < 10
COc1ccc(-c2ccc(S(=O)(=O)N(C)Cc3c[nH]nn3)cc2)cc1 [Example 12, N-((1H-1,2,3-triazol-4-yl)methyl)-4′-methoxy-N-methylbiphenyl-4-sulfonamide] | < 10
CCC(CC)(NS(=O)(=O)c1ccc(-c2ccc(C(F)(F)F)cc2)cc1)c1cnn[nH]1 [Example 14, N-(3-(1H-1,2,3-triazol-5-yl)pentan-3-yl)-4′-(trifluoromethyl)biphenyl-4-sulfonamide] | < 10
COc1ccc(-c2ccc(S(=O)(=O)NC(C)c3cnn[nH]3)cc2)cc1 (centres unmarked) [Example 8, N-(1-(1H-1,2,3-triazol-5-yl)ethyl)-4′-methoxybiphenyl-4-sulfonamide] | < 10
COc1ccc(-c2ccc(S(=O)(=O)NCc3[nH]nnc3-c3ccccc3)cc2)cc1 [Example 11, 4′-Methoxy-N-((4-phenyl-1H-1,2,3-triazol-5-yl)methyl)biphenyl-4-sulfonamide] | < 10

Structure (SMILES) | IC50 [µM]
CC(C)(NS(=O)(=O)c1ccc(-c2ccc(NC(=O)c3ccc(F)c(F)c3)cc2)cc1)c1cnn[nH]1 [Example 28, N-(4′-(N-(2-(1H-1,2,3-triazol-5-yl)propan-2-yl)sulfamoyl)biphenyl-4-yl)-3,4-difluorobenzamide] | < 10
COc1ccc(-c2ccc(S(=O)(=O)NC(c3cnn[nH]3)C(C)C)cc2)cc1 (centres unmarked) [Example 9, 4′-Methoxy-N-(2-methyl-1-(1H-1,2,3-triazol-5-yl)propyl)biphenyl-4-sulfonamide] | < 10
CC(C)(NS(=O)(=O)c1ccc(-c2cccc(CNC(=O)c3ccccn3)c2)cc1)c1cnn[nH]1 [Example 31, N-((4′-(N-(2-(1H-1,2,3-triazol-5-yl)propan-2-yl)sulfamoyl)biphenyl-3-yl)methyl)picolinamide] | < 10
CC(C)OC(=O)NCc1cccc(-c2ccc(S(=O)(=O)NC(C)(C)c3cnn[nH]3)cc2)c1 [Example 32, Isopropyl(4′-(N-(2-(1H-1,2,3-triazol-5-yl)propan-2-yl)sulfamoyl)biphenyl-3-yl)methylcarbamate] | < 10
CC(C)(NS(=O)(=O)c1ccc(-c2ccc(NC(=O)c3ccccc3)cc2)cc1)c1cnn[nH]1 [Example 27, N-(4′-(N-(2-(1H-1,2,3-triazol-5-yl)propan-2-yl)sulfamoyl)biphenyl-4-yl)benzamide] | < 10
CC(C)(NS(=O)(=O)c1ccc(-c2cccc(CNC(=O)c3cccnc3)c2)cc1)c1cnn[nH]1 [Example 33, N-((4′-(N-(2-(1H-1,2,3-triazol-5-yl)propan-2-yl)sulfamoyl)biphenyl-3-yl)methyl)nicotinamide] | < 10
CC(C)(C)OC(=O)NCc1cccc(-c2ccc(S(=O)(=O)NC(C)(C)c3cnn[nH]3)cc2)c1 [Example 20, tert-butyl(4′-(N-(2-(1H-1,2,3-triazol-5-yl)propan-2-yl)sulfamoyl)biphenyl-3-yl)methylcarbamate] | < 10
CCOc1ccc(-c2ccc(S(=O)(=O)NC(C)(C)c3cnn[nH]3)cc2)cc1 [Example 19, N-(2-(1H-1,2,3-triazol-5-yl)propan-2-yl)-4′-ethoxybiphenyl-4-sulfonamide] | < 10
CC(C)Oc1ccc(-c2ccc(S(=O)(=O)NC(C)(C)c3cnn[nH]3)cc2)cc1 [Example 18, N-(2-(1H-1,2,3-triazol-5-yl)propan-2-yl)-4′-isopropoxybiphenyl-4-sulfonamide] | < 10
CC(C)(NS(=O)(=O)c1ccc(-c2cccc(CNC(=O)C3CC3)c2)cc1)c1cnn[nH]1 [Example 22, N-((4′-(N-(2-(1H-1,2,3-triazol-5-yl)propan-2-yl)sulfamoyl)biphenyl-3-yl)methyl)cyclopropanecarboxamide] | < 10
COCCOC(=O)NCc1cccc(-c2ccc(S(=O)(=O)NC(C)(C)c3cnn[nH]3)cc2)c1 [Example 26, 2-Methoxy ethyl(4′-(N-(2-(1H-1,2,3-triazol-5-yl)propan-2-yl)sulfamoyl)biphenyl-3-yl)methylcarbamate] | < 10
O=S(=O)(NCc1cnn[nH]1)c1ccc(-n2cc(Cl)cn2)cc1 [Example 7, N-((1H-1,2,3-triazol-5-yl)methyl)-4-(4-chloro-1H-pyrazol-1-yl)benzenesulfonamide] | < 10
O=S(=O)(NCc1cnn[nH]1)c1ccc(-c2ccc(C(F)(F)F)cc2)cc1 [Example 2, N-((1H-1,2,3-triazol-5-yl)methyl)-4′-(trifluoromethyl)biphenyl-4-sulfonamide] | < 10
COCCN(C(C)(C)c1cnn[nH]1)S(=O)(=O)c1ccc(-c2ccc(C(F)(F)F)cc2)cc1 [Example 16, N-(2-(1H-1,2,3-triazol-5-yl)propan-2-yl)-4′-(2-methoxyethyl)-4′-(trifluoromethyl)biphenyl-4-sulfonamide] | < 10
CCOC(=O)NCc1cccc(-c2ccc(S(=O)(=O)NC(C)(C)c3cnn[nH]3)cc2)c1 [Example 35, Ethyl(4′-(N-(2-(1H-1,2,3-triazol-5-yl)propan-2-yl)sulfamoyl)biphenyl-3-yl)methylcarbamate] | < 10
COc1ccc(-c2ccc(S(=O)(=O)NC(c3ccccc3)c3cnn[nH]3)cc2)cc1 (centres unmarked) [Example 10, 4′-Methoxy-N-(phenyl(1H-1,2,3-triazol-5-yl)methyl)biphenyl-4-sulfonamide] | < 10
CC(C)(NS(=O)(=O)c1ccc(-c2ccc(NC(=O)c3ccc(Cl)c(Cl)c3)cc2)cc1)c1cnn[nH]1 [Example 29, N-(4′-(N-(2-(1H-1,2,3-triazol-5-yl)propan-2-yl)sulfamoyl)biphenyl-4-yl)-3,4-dichlorobenzamide] | < 10
